The record followed here is the supplement of paper PMC10849652.

Amino acid sequences for entries named in this document (tags omitted). A change or cut given only in a name is not applied to a line headed by its entry.
UniProt Q15628: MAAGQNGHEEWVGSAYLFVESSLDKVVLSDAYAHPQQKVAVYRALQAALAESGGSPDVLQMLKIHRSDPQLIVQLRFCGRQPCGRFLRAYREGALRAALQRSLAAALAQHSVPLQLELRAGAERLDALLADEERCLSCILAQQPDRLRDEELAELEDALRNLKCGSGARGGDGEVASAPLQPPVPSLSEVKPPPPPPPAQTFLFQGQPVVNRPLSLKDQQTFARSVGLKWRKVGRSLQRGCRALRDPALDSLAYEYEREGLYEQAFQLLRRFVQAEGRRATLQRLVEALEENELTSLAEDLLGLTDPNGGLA
UniProt Q8TDR0: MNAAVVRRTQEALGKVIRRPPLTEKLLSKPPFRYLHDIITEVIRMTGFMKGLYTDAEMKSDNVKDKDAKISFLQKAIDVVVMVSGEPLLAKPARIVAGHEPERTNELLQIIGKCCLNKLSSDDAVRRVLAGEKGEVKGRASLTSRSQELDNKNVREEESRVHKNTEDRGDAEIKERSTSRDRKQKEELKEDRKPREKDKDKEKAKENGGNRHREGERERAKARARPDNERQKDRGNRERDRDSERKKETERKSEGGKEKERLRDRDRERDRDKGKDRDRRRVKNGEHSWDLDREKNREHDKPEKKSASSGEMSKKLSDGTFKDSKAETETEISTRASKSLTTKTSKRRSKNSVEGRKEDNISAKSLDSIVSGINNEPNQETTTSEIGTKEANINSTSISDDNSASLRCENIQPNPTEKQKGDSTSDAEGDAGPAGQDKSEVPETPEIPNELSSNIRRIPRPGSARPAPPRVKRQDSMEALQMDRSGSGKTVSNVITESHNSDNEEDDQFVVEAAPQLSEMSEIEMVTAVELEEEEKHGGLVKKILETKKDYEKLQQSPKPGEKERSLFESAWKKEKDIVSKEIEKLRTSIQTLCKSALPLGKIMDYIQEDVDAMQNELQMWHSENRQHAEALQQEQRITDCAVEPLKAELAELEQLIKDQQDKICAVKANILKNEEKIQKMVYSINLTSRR
UniProt Q14669: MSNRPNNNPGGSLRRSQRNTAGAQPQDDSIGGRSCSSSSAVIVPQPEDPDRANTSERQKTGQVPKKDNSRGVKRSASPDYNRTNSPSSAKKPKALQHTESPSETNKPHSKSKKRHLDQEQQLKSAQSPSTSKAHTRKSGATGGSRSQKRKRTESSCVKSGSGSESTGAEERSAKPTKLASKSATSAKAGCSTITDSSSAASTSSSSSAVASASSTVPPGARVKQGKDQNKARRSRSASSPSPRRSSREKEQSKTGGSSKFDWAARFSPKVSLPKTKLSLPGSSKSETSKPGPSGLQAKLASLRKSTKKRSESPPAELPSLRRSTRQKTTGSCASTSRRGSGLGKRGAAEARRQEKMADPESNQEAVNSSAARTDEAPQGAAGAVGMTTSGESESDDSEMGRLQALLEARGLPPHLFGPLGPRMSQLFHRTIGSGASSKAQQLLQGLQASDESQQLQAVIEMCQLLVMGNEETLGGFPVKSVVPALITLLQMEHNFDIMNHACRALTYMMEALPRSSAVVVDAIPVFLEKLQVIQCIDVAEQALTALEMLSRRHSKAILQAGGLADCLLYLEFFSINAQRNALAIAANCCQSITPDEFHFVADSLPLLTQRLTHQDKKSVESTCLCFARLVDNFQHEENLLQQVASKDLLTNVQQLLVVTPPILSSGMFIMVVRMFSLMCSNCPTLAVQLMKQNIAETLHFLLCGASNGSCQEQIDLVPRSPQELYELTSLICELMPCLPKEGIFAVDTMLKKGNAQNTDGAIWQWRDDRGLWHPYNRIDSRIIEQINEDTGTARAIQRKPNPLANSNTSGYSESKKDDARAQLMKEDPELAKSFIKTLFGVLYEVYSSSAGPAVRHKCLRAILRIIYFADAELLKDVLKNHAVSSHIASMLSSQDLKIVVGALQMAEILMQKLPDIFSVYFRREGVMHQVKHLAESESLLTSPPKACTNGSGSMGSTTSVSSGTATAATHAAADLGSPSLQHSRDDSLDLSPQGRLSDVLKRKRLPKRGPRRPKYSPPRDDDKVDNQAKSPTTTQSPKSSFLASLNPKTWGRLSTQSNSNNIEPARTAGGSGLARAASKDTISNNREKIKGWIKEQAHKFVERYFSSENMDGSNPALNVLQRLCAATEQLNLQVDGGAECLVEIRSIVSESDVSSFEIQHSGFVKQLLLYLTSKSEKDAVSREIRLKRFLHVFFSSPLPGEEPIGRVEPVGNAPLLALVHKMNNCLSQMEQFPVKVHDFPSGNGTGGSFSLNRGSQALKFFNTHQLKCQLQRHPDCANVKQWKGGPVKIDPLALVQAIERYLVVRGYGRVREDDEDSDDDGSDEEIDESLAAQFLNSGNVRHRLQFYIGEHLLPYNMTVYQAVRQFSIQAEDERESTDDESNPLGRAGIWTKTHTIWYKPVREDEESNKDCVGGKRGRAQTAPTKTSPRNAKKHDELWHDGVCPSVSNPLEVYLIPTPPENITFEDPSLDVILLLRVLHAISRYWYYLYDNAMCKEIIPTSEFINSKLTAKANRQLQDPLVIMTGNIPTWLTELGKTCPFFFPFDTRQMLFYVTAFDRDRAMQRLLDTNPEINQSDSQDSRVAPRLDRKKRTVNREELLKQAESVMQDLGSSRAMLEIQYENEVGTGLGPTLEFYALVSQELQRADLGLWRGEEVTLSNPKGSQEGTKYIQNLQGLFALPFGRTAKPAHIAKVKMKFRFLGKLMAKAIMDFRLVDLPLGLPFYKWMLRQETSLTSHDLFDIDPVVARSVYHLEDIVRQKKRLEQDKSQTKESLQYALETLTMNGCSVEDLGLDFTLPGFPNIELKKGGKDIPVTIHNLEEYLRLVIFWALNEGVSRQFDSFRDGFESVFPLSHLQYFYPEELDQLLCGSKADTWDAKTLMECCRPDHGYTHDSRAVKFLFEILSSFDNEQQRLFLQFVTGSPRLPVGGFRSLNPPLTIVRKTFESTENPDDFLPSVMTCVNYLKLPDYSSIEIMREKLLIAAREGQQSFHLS
UniProt Q15025: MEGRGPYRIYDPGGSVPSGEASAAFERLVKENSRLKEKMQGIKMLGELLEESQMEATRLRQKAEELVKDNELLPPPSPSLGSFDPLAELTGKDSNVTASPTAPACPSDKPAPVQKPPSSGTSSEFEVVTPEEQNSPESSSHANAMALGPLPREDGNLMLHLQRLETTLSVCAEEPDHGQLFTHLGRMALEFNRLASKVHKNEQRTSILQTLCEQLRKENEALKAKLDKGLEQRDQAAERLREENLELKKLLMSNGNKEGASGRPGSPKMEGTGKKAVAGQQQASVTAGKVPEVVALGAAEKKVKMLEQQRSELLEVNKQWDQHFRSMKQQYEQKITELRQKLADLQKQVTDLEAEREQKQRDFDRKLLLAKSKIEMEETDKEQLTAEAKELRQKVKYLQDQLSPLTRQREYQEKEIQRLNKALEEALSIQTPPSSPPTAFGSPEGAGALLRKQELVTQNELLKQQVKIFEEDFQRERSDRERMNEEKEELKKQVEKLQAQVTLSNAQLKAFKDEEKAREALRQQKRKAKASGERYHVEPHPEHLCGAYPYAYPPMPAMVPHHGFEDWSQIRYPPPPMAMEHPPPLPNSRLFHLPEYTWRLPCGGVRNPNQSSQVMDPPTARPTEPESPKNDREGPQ
UniProt Q9C037: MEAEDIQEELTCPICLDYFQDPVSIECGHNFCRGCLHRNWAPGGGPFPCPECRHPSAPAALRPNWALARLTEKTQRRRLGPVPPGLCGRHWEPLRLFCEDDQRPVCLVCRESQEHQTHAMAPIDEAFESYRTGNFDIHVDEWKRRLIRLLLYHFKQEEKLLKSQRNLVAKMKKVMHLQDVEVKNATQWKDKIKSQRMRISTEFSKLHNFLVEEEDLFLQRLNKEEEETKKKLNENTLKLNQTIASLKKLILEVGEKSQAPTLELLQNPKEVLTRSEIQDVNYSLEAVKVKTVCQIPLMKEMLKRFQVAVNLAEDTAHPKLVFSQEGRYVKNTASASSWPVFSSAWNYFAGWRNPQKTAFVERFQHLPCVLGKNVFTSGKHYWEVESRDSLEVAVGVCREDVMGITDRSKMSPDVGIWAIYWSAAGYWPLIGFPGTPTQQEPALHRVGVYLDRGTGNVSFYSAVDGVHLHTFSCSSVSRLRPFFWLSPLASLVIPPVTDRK
UniProt Q9H4I3: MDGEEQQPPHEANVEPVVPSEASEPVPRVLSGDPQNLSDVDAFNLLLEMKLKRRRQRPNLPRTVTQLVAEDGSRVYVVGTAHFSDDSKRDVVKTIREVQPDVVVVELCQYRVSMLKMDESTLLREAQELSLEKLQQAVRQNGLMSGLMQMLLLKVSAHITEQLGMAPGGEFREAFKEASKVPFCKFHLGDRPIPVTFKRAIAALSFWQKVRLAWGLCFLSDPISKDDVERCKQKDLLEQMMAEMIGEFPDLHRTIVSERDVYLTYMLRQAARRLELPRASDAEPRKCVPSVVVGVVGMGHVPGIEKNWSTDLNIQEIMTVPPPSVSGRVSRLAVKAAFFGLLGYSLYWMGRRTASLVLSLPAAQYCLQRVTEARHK
UniProt Q15035: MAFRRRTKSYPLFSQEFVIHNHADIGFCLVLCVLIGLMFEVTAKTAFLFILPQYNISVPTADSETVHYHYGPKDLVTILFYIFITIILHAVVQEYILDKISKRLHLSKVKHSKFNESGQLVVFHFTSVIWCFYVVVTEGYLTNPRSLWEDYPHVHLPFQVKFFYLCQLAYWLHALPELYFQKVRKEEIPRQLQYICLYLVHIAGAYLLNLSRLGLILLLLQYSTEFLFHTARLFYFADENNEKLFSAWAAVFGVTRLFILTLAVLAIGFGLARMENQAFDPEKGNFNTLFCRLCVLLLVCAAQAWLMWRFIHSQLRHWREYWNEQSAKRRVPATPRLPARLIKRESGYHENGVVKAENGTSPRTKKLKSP
UniProt Q6Q0C0: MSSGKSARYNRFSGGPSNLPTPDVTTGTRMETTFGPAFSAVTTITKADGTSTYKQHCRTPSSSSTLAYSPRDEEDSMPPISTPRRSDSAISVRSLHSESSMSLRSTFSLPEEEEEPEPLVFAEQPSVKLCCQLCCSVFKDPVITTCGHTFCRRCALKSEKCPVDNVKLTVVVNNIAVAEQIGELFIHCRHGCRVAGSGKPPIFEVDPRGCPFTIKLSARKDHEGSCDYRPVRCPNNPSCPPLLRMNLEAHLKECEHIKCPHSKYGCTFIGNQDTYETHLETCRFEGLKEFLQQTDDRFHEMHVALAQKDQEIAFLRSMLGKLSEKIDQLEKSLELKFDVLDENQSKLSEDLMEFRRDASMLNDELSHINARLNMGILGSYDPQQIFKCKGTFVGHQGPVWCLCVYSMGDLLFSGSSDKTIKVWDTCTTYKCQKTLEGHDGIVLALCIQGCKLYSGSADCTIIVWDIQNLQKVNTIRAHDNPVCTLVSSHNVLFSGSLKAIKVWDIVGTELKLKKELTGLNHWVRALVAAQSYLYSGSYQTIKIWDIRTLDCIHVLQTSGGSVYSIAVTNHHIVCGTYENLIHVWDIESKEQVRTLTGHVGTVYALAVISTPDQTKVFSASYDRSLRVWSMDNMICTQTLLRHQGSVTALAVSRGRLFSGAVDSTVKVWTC
UniProt O60784, whole entry, looked up: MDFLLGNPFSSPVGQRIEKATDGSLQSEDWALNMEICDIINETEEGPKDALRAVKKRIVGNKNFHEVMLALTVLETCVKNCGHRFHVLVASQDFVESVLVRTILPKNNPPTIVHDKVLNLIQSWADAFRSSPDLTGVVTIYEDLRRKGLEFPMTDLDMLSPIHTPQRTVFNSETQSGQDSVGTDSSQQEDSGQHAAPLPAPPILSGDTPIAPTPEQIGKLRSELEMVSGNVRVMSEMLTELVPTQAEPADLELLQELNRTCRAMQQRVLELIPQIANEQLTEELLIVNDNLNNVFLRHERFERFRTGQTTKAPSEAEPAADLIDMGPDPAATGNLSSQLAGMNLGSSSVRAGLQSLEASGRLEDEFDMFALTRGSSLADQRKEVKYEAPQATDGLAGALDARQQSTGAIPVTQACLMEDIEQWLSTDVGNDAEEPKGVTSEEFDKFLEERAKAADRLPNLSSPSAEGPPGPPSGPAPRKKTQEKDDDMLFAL
UniProt Q86W33: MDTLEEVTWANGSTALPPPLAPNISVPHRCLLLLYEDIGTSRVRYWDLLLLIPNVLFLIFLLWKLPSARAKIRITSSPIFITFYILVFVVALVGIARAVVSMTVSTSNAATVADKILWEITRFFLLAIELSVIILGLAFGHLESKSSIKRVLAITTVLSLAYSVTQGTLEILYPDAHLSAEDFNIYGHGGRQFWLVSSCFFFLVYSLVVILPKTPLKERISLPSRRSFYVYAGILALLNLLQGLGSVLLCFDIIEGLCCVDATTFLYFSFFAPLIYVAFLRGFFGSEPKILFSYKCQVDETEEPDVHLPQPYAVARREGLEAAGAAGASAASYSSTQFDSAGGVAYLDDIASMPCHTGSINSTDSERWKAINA
UniProt O75865, whole entry, looked up: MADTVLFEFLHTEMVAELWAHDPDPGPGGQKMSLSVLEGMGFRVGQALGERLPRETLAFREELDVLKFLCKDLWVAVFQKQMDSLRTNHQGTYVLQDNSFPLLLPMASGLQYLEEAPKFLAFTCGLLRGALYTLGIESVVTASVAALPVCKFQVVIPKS

The other results are listed elsewhere or left out.

Compound in the first assay: CN1CCN(CCOc2cc(OC3CCOCC3)c3c(Nc4c(Cl)ccc5c4OCO5)ncnc3c2)CC1 [saracatinib]
The assay can be described thus: log2 fold change, soluble protein after heating vs DMSO (PISA); higher = thermal stabilisation; K562 cells, 10 uM, 30 min; active = over 0.2 and 3.5 SD of the protein, either way, in both replicates (recomputed). The method, boiled down:
(§1)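 K562 cells (2×10^6 cells/mL) were treated with 10 μM compound for 30 min, and aliquots were heated for 3 min over 48°C-58°C. Pooled aliquots were extracted in PBS with 0.5% NP-40 at 4°C, and the supernatant after 21,000xg for 90 min was measured by TMTpro 16plex LC-MS/MS with channel sums equalised. Reported thermal stability, relative to control samples and from duplicates, is a log2 fold change.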
Turning to TNK2 isoform 3 (UniProt Q07912), the log2 fold change is inactive: 0.104.

TRADD (UniProt Q15628): the log2 fold change is inactive: -0.163.

Consider TNKS (UniProt O95271), for which the log2 fold change was inactive: 0.109.

On to TRAF3IP1 (UniProt Q8TDR0), for which the log2 fold change is inactive: -0.168.

With TRIP12 isoform 3 (UniProt Q14669), the log2 fold change was inactive: -0.294.

On to TPD52 isoform 3 (UniProt P55327), for which the log2 fold change is inactive: 0.108.

Compound in a further assay: CN1CCN(c2nc(C3=C(c4c[nH]c5ccccc45)C(=O)NC3=O)c3ccccc3n2)CC1 [sotrastaurin]
Described as above. The method, boiled down: as §1
Take TSC2 (UniProt P49815): the log2 fold change is inactive: -0.085.

Regarding TPPP3 (UniProt Q9BW30), the log2 fold change was inactive: -0.107.

In the case of TPRG1L (UniProt Q5T0D9), the log2 fold change is inactive: -0.049.

In the case of TNIP1 (UniProt Q15025), the log2 fold change was inactive: 0.021.

For TRPT1 isoform 4 (UniProt Q86TN4), the log2 fold change was inactive: -0.208.

With TRIO (UniProt O75962), the log2 fold change was inactive: -0.086.

On to TRIM4 (UniProt Q9C037), for which the log2 fold change was inactive: 0.024.

For the target TRABD (UniProt Q9H4I3), the log2 fold change is inactive: 0.003.

TRAM2 (UniProt Q15035): the log2 fold change is inactive: 0.068.

Regarding TRIM33 isoform 2 (UniProt Q9UPN9), the log2 fold change was inactive: -0.017.

In the case of TRAF7 (UniProt Q6Q0C0), the log2 fold change was inactive: -0.055.

As to TOM1 (UniProt O60784), the log2 fold change is inactive: -0.033.

In the case of TPRA1 (UniProt Q86W33), the log2 fold change was inactive: -0.083.

Compound in a further assay: CN1CC[C@H](c2c(O)cc(O)c3c(=O)cc(-c4ccccc4Cl)oc23)[C@H](O)C1 [alvocidib]
The assay is described as above. The method, boiled down:
as §1
In the case of TRPS1 isoform 2 (UniProt Q9UHF7), the log2 fold change was inactive: 0.097.

On to TRAPPC6A isoform 2 (UniProt O75865), for which the log2 fold change is inactive: -0.251.

With TRAM2 (UniProt Q15035), the log2 fold change is inactive: -0.101.

Consider TRAF7 (UniProt Q6Q0C0), for which the log2 fold change was inactive: 0.026.

As for TRAF3IP1 (UniProt Q8TDR0), the log2 fold change was inactive: 0.145.

On to TRIT1 (UniProt Q9H3H1), for which the log2 fold change was inactive: -0.123.

Compound in a further assay: CN1CCc2c(c3ccccc3n2Cc2ccc(C(=O)NO)cc2)C1 [Tubastatin A]
The description is as above. The essentials: as §1
Consider TSC2 (UniProt P49815), for which the log2 fold change is inactive: 0.437.

Take TRA2A (UniProt Q13595): the log2 fold change was inactive: -0.02.

As to TPRG1L (UniProt Q5T0D9), the log2 fold change is inactive: 0.121.

For the target TNIP1 (UniProt Q15025), the log2 fold change was inactive: 0.025.

On to TPD52L2 isoform 3 (UniProt O43399), for which the log2 fold change is inactive: -0.093.

On to TRIO (UniProt O75962), for which the log2 fold change was inactive: -0.048.

As to TRIM4 (UniProt Q9C037), the log2 fold change was inactive: 0.097.

In the case of TRABD (UniProt Q9H4I3), the log2 fold change was inactive: 0.06.

Consider TRMT5 (UniProt Q32P41), for which the log2 fold change was inactive: 0.066.

As for TRAM2 (UniProt Q15035), the log2 fold change is inactive: -0.096.

On to TRIP12 isoform 3 (UniProt Q14669), for which the log2 fold change was inactive: -0.021.

As to TOM1 (UniProt O60784), the log2 fold change was inactive: 0.002.

Compound in the next assay: CNC(=O)C1=CC=CC=C1NC2=NC(=NC=C2Cl)NC3=C(C=C(C=C3)N4CCOCC4)OC
Described as above. The method, boiled down:
as §1
In the case of TNK2 isoform 3 (UniProt Q07912), the log2 fold change is inactive: -0.071.

For the target TSC2 (UniProt P49815), the log2 fold change is inactive: -0.603.

With TRPS1 isoform 2 (UniProt Q9UHF7), the log2 fold change was inactive: -0.447.

In the case of TPRG1L (UniProt Q5T0D9), the log2 fold change is inactive: 0.052.

With TNIP1 (UniProt Q15025), the log2 fold change is inactive: -0.181.

Take TRPT1 isoform 4 (UniProt Q86TN4): the log2 fold change is inactive: -0.069.

As to TRIO (UniProt O75962), the log2 fold change is inactive: 0.323.

In the case of TRIM4 (UniProt Q9C037), the log2 fold change is active: 0.439.

TRAPPC6A isoform 2 (UniProt O75865): the log2 fold change was inactive: -0.078.

On to TRADD (UniProt Q15628), for which the log2 fold change was inactive: -0.011.

As to TRABD (UniProt Q9H4I3), the log2 fold change is inactive: 0.131.

Turning to TRMT5 (UniProt Q32P41), the log2 fold change is inactive: -0.125.

Regarding TRAM2 (UniProt Q15035), the log2 fold change was inactive: -0.089.

With TRAF7 (UniProt Q6Q0C0), the log2 fold change was inactive: -0.007.

Turning to TOM1 (UniProt O60784), the log2 fold change was inactive: -0.113.

With TPRA1 (UniProt Q86W33), the log2 fold change is inactive: 0.07.

Compound in the next assay: CNC(=O)c1ccc(Nc2ncc(C(F)(F)F)c(NCc3nccnc3N(C)S(C)(=O)=O)n2)cc1 [defactinib]
Described as above. The essentials: as §1
For TPD52L2 isoform 3 (UniProt O43399), the log2 fold change was inactive: 0.034.

Regarding TRIM4 (UniProt Q9C037), the log2 fold change is inactive: -0.029.

Regarding TRADD (UniProt Q15628), the log2 fold change is inactive: 0.029.

As to TRABD (UniProt Q9H4I3), the log2 fold change is inactive: -0.096.

For the target TRMT5 (UniProt Q32P41), the log2 fold change is inactive: -0.16.

For TRAM2 (UniProt Q15035), the log2 fold change was inactive: -0.03.

With TRAF7 (UniProt Q6Q0C0), the log2 fold change is inactive: 0.03.

In the case of TRAF3 (UniProt Q13114), the log2 fold change is inactive: 0.1.

For TRAF3IP1 (UniProt Q8TDR0), the log2 fold change is inactive: -0.022.

Regarding TRIP12 isoform 3 (UniProt Q14669), the log2 fold change was inactive: 0.108.

For TRIM41 (UniProt Q8WV44), the log2 fold change was inactive: -0.142.

TPRA1 (UniProt Q86W33): the log2 fold change is inactive: -0.034.

Compound in another assay: CNCc1ccc(-c2[nH]c3cc(F)cc4c3c2CCNC4=O)cc1 [rucaparib]
The assay is described as above. The method, boiled down:
as §1
Consider TSC2 (UniProt P49815), for which the log2 fold change is inactive: -0.097.

As for TRIM29 (UniProt Q14134), the log2 fold change was inactive: -0.027.

As to TPRG1L (UniProt Q5T0D9), the log2 fold change was inactive: 0.014.

As to TNIP1 (UniProt Q15025), the log2 fold change was inactive: 0.207.

TOR1AIP2 (UniProt Q9H496): the log2 fold change was inactive: 0.142.

As to TRPT1 isoform 4 (UniProt Q86TN4), the log2 fold change is inactive: 0.101.

TRIO (UniProt O75962): the log2 fold change is inactive: -0.116.

Take TRIM4 (UniProt Q9C037): the log2 fold change is inactive: 0.031.

TRAPPC6A isoform 2 (UniProt O75865): the log2 fold change was inactive: -0.03.

Turning to TRABD (UniProt Q9H4I3), the log2 fold change was inactive: 0.073.

Take TRMT5 (UniProt Q32P41): the log2 fold change was inactive: 0.191.

Take TRAM2 (UniProt Q15035): the log2 fold change is inactive: -0.009.

On to TRIT1 (UniProt Q9H3H1), for which the log2 fold change was inactive: 0.423.

Take TNXB isoform 4 (UniProt P22105): the log2 fold change was inactive: 0.147.

TRIP12 isoform 3 (UniProt Q14669): the log2 fold change was inactive: -0.216.
